# PubChem BioAssay AID504784, Drosophila RNAi Screening Center, 2011
# Assay: 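Fly genes whose silencing alters how much lipid cells keep in droplets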 (primary screen)
# Cells: Drosophila Kc167 embryonic cells
# Knock-down reagent: long dsRNA against Drosophila genes, about 250 ng dsRNA per well
# Time to read-out: 4 days
# Challenge: cells fed 400 µM oleic acid bound to BSA
# Measurement: 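Microscope images give a droplet-to-nucleus area ratio, taken as log and converted to a screen-wide B-score; higher values mean greater lipid storage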
# Scale: droplet/nuclear area B-score: higher = more stored lipid (overstorage)
# The screen tested about 17,000 reagents; shown is an unselected part of those that have a named target and a result. 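Each column is one replicate's B-score; the combined score over replicates was not deposited, so single values may mislead.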 A plus sign joins genes that one reagent is predicted to hit.
Gene,dsRNA,"droplet/nuclear area B-score, replicate 1","droplet/nuclear area B-score, replicate 2","droplet/nuclear area B-score, replicate 3"
r-cup (ryder cup),DRSC20475,1.39,-0.0491,
CG10163,DRSC09710,0.598,,
CG8407,DRSC07167,-1.21,-1.5,
CG14185,DRSC10184,0.644,0.11,
CG12535,DRSC17838,-3.26,-0.143,
CG12502,DRSC08281,-0.0223,0.937,
CG12502,DRSC23247,0.737,-1.32,
CG11368,DRSC17778,-1.22,-0.747,
Rbbp5 + CG6434 (retired record),DRSC10635,0.145,-1.2,
eIF4E6 (eukaryotic translation initiation factor 4E6),DRSC14853,0.749,1.16,
CG6041,DRSC18396,0.957,-1.01,
wtrw (water witch),DRSC14241,4.15,-0.371,
wtrw (water witch),DRSC15278,2.5,2.88,0.539
CG3611,DRSC04395,-0.00809,-0.249,
CR15280 (pseudo),DRSC01953,2.2,2.05,
frac (faulty attraction),DRSC10867,-0.486,-0.622,
sn (singed),DRSC18834,-0.127,0.264,
Tsp86D (Tetraspanin 86D),DRSC15607,0.112,-1.18,
Coq5 (Coenzyme Q5),DRSC19849,-0.882,-0.795,0.525
Coq5 (Coenzyme Q5),DRSC21371,-2,0.171,
Lnpk (Lunapark),DRSC07254,-0.102,2.63,
RunxA (Runt related A),DRSC20498,-0.525,1.29,
RunxA (Runt related A),DRSC20524,,-0.0778,
RunxA (Runt related A),DRSC21915,-0.689,-0.632,
tor (torso),DRSC07707,-0.163,0.195,
stas (Stasimon),DRSC20104,-1.78,0.606,
CG31677,DRSC22023,-0.379,0.671,
cnir (cornichon related),DRSC00499,-1.16,1.04,
Crtc (CREB-regulated transcription coactivator),DRSC10578,-0.856,-2.63,
Crtc (CREB-regulated transcription coactivator),DRSC23130,0.022,0.962,
DIP-iota (Dpr-interacting protein iota),DRSC02140,-1.54,1.77,
CG31462 (retired record),DRSC14359,-0.0658,-0.101,
CG32109,DRSC09816,-0.755,0.289,
SIDL (Shal Interactor of Di-Leucine Motif),DRSC16077,1.28,0.57,
nsl1 (non-specific lethal 1),DRSC15625,0.145,-1.71,
Nnf1a,DRSC06394,-1.37,-0.141,
RpL28 + snoRNA:Or-CD12,DRSC08293,2.01,2.24,
GatC + PolG2,DRSC03312,0.992,-0.194,
CG15169,DRSC02470,0.255,-0.175,
CG14689,DRSC14912,-0.231,-0.126,
sw + Sdic4 + Sdic3 + 2 more,DRSC20696,-1.01,0.03,
RpL13A (Ribosomal protein L13A),DRSC12265,1.95,5.01,
MTA1-like (Metastasis associated 1-like),DRSC12382,-5.12,-2.98,
MTA1-like (Metastasis associated 1-like),DRSC22022,-0.621,0.567,
Wnt6 (Wnt oncogene analog 6),DRSC02795,-0.121,-1.61,
CG32651,DRSC18941,0.0487,1.53,
alpha-Est1 (alpha-Esterase-1),DRSC12612,-3.99,-0.282,
Dred (Dctn1-related),DRSC11057,-0.102,-0.475,
Dred (Dctn1-related),DRSC11059,-0.183,0.701,
Crz (Corazonin),DRSC16615,0.0533,-1.83,
sub (subito),DRSC06125,-0.279,-1.04,
CG6362,DRSC07413,3.4,-2.03,
g (garnet),DRSC20335,-0.382,0.428,4.72
CG14402,DRSC02386,-0.588,1.72,
Bka (Bekka),DRSC02757,0.469,0.103,
CG6788,DRSC20007,-1.3,1.22,
Eip74EF (Ecdysone-induced protein 74EF),DRSC10613,-2.45,-3.59,-1.1
Eip74EF (Ecdysone-induced protein 74EF),DRSC11160,3.41,0.73,
Vajk3,DRSC01883,0.719,-0.837,
CG42245 + MEP-1,DRSC07993,2.5,0.482,
CG42245 + MEP-1,DRSC08274,-0.0203,,
CG42245 + MEP-1,DRSC21460,2.54,1.54,
VhaM9.7-a (Vacuolar H[+] ATPase M9.7 subunit a),DRSC08289,1.06,-1.09,
Cyp6d2 (Cytochrome P450 6d2),DRSC04606,0.577,-1.21,-1.33
Pgam5-2 (Phosphoglycerate mutase 5-2),DRSC04278,0.651,-0.18,
CG13293,DRSC09967,0.743,-0.156,
CG7139,DRSC11611,0.142,0.338,-0.0266
CG42376 + cin,DRSC18752,0.214,,
ms(2)34Fe (male sterile (2) 34Fe),DRSC01905,0.964,-0.0831,
VhaM9.7-c (Vacuolar H[+] ATPase M9.7 subunit c),DRSC08204,0.777,-0.817,
Rab9Db + Rab9Fa,DRSC18445,-0.707,1.41,-0.616
rha,DRSC17044,0.4,,
Ect3 (Ectoderm-expressed 3),DRSC15462,-0.0332,3.5,
CG31548,DRSC22640,-0.589,-0.752,
MstProx + Mst84Da,DRSC12597,0.00145,-0.0354,
exp (expansion),DRSC06313,0.674,0.167,
CG2528,DRSC03724,0.861,1.83,
CG32681,DRSC17646,0.0632,-0.0126,
lsn (larsen),DRSC16081,0.875,0.784,
CG18764,DRSC15391,-1.87,3.95,
CG15522,DRSC15059,1.45,0.00373,
CG4286,DRSC04459,-0.452,-1.82,
CG4611,DRSC10434,0.253,-0.498,
Gr98b (Gustatory receptor 98b),DRSC21675,0.00121,-0.714,
mRpL27 (mitochondrial ribosomal protein L27),DRSC22568,1.06,0.262,
CG12177,DRSC19437,-1.91,0.159,-1.19
CG12177,DRSC21524,-1.27,-0.366,
Best2 (Bestrophin 2),DRSC09712,-0.00748,0.132,
Mco4 (Multicopper oxidase 4),DRSC20061,1.45,-0.296,
CG14502,DRSC06473,0.0293,0.122,
poe (purity of essence),DRSC03593,0.775,2.07,
CG17593,DRSC00504,-0.183,0.392,
CG13331,DRSC06366,1.06,1.77,
gw (gawky),DRSC17135,-0.186,0.685,
gw (gawky),DRSC17160,-0.975,0.612,
ksr (kinase suppressor of ras),DRSC12379,-1.29,1.39,
Chc (Clathrin heavy chain),DRSC20229,0.414,0.429,0.074
ND-20 (NADH dehydrogenase (ubiquinone) 20 kDa subunit),DRSC20164,4.16,1.06,1.63
CG31778,DRSC00283,-0.646,0.013,
Rae1,DRSC04577,-1.87,-3.01,
per (period),DRSC18818,-2,-0.00698,
CG32236,DRSC08117,2.17,-0.275,
Sec24AB (Secretory 24AB),DRSC06478,-0.00239,1.14,
RpL10 (Ribosomal protein L10),DRSC11947,7.19,6,
Fen1 (Flap endonuclease 1),DRSC07415,-2.13,0.906,

Entries listed so far whose gene name begins with B or b:
Gene,dsRNA,"droplet/nuclear area B-score, replicate 1","droplet/nuclear area B-score, replicate 2","droplet/nuclear area B-score, replicate 3"
Bka (Bekka),DRSC02757,0.469,0.103,
Best2 (Bestrophin 2),DRSC09712,-0.00748,0.132,
